Positions count from the first letter of the chain named. Names may count otherwise. These are yes or no findings as the source states them, for the method shown. In cells and extracts the contact can be indirect. Some entries that bind do so weakly or less than the wild type.

In the experiment the target is Exo84-HA, Q8IYI6. The experiment can be described thus: co-IP; HEK293T cells transfected with control or STK38 siRNAs, then with vectors; Exo84-HA immunoprecipitated with anti-HA; basal or EBSS for 90 min; RalB or Beclin1 detected by western blotting. To be noted: remark: other sources report otherwise. (Immunoblotting shows a protein as a band on a membrane.)

B1: RalB, P11234 1-206 (protein)
chain: MAANKSKGQSSLALHKVIMVGSGGVGKSALTLQFMYDEFVEDYEPTKADSYRKKVVLDGEEVQIDILDTAGQEDYAAIRDNYFRSGEGFLLVFSITEHESFTATAEFREQILRVKAEEDKIPLLVVGNKSDLEERRQVPVEEARSKAEEWGVQYVETSAKTRANVDKVFFDLMREIRTKKMSENKDKNGKKSSKNKKSFKERCCLL
On to B1, for which the binding entry is “binds”.

B2: constitutively active RalB G23V, P11234 1-206 (protein)
chain: B1 chain with G23V
For the molecule B2, the binding entry is given as “binds”.

These data come from PMC4598746.
